This is one part of the list. Hit calls seldom repeat between salt and free forms of one compound.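 Kinases, fused to nanoluciferase, were expressed in K562 cells; luminescence was measured every 4 h from 2 to 18 h as percent of control (DMSO = 100%, positive control = 0%). A time point is decreased if signal falls significantly (2 sigma). Hits were called by the authors by a rule that is not shown; the count of time points alone does not decide it.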
Tests used:
Experiment in all cases: kinase-Nluc reporter destabilization hit call (1 = scored as downregulated) (binary); higher = compound decreases kinase abundance
Settings in all cases: K562; 2-18 h
CDK7 = CDK7 (UniProt P50613)
CDK9 = CDK9 (UniProt P50750)
CHEK2 = CHEK2 (UniProt O96017)
CSF1R = CSF1R (UniProt P07333)
CSK = CSK (UniProt P41240)
CSNK1A1 = CSNK1A1 (UniProt P48729)
CSNK1D = CSNK1D (UniProt P48730)
DDR1 = DDR1 (UniProt Q08345)
DYRK1B = DYRK1B (UniProt Q9Y463)
DYRK2 = DYRK2 (UniProt Q92630)
EGFR = EGFR (UniProt P00533)
EGFR_G719S = EGFR_G719S (UniProt P00533)
EGFR_G719S_T790M = EGFR_G719S_T790M (UniProt P00533)
EGFR_L718V = EGFR_L718V (UniProt P00533)
EGFR_L858R = EGFR_L858R (UniProt P00533)
EGFR_L861Q = EGFR_L861Q (UniProt P00533)
EGFR_T790M = EGFR_T790M (UniProt P00533)
EPHA2 = EPHA2 (UniProt P29317)
ERBB3 = ERBB3 (UniProt P21860)
[1] = target: ERBB4_R711C (clone: ERBB4_mut) (UniProt Q15303)

By UniProt entry, the sequences of proteins in these tests, tags left out. Where a name states a change or a piece, a line headed by the entry shows the natural chain unless it says otherwise.
UniProt P50613: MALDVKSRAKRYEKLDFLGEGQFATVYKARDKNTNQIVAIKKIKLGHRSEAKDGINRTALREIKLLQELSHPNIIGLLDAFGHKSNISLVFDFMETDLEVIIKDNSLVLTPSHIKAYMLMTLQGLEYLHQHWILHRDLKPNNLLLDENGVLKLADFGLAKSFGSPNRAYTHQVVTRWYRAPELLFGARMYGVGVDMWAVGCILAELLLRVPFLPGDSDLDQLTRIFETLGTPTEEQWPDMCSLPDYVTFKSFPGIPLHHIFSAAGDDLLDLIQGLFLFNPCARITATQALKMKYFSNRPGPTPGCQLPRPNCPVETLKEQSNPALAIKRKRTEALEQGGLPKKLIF
UniProt P50750, whole entry: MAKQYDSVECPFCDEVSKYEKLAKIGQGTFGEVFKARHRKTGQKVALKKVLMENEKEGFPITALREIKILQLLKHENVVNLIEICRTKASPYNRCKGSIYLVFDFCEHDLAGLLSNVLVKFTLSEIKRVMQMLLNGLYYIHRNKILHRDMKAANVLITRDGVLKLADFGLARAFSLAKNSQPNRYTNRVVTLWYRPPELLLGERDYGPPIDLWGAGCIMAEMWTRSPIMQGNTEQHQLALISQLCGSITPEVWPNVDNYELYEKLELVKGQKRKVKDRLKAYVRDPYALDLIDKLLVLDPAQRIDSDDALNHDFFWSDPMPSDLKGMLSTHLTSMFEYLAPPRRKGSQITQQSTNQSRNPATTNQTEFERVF
UniProt O96017, whole entry: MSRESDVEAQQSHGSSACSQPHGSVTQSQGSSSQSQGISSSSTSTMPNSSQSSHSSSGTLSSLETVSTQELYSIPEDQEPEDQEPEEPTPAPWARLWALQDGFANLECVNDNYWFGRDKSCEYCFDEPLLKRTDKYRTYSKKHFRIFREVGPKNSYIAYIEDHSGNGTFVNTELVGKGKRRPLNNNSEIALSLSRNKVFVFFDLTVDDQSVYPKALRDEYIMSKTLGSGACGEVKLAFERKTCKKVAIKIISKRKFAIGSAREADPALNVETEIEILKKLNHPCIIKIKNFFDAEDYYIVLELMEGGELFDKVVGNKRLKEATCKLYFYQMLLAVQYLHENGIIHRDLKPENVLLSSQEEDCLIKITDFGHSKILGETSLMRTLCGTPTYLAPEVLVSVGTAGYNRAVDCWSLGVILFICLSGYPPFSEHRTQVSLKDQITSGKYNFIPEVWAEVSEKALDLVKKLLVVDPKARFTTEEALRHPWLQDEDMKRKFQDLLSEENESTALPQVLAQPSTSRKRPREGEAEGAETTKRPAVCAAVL
UniProt P07333, whole entry: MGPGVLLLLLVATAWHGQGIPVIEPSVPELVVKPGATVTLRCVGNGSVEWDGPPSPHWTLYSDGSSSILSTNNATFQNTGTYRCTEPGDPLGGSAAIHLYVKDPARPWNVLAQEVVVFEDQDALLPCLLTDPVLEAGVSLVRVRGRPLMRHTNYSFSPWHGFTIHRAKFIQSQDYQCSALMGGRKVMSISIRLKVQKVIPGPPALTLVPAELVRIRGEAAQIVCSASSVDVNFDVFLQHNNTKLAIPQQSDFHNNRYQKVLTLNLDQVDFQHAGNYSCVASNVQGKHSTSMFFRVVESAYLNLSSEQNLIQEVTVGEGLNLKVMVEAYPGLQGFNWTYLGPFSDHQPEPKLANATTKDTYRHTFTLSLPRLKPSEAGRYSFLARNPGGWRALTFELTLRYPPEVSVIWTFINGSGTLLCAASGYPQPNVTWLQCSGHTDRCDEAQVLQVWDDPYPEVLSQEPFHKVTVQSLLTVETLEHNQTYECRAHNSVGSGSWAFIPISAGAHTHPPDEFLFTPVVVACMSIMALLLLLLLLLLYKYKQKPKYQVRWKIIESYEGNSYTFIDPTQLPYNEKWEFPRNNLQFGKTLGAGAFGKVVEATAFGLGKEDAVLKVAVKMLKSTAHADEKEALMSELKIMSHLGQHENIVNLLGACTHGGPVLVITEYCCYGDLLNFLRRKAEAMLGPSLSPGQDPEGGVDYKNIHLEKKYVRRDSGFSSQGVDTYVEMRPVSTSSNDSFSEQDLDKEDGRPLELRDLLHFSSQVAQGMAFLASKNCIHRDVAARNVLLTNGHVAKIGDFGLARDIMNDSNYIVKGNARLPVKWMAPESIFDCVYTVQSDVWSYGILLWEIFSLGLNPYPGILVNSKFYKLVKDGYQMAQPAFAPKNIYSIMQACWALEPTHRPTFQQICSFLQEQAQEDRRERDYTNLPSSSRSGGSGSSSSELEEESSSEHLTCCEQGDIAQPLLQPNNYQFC
UniProt P41240: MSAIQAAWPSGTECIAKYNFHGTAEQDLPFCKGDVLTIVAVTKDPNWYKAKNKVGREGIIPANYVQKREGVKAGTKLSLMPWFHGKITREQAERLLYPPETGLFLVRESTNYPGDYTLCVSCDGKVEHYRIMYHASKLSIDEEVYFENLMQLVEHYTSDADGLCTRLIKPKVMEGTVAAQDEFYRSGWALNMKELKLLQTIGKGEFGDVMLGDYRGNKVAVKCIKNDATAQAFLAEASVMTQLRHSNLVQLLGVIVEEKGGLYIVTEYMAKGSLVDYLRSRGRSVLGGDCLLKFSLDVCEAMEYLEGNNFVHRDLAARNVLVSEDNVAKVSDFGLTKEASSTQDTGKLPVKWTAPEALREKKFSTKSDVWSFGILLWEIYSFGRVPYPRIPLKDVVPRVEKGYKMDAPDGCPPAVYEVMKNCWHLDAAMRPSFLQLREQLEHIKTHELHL
UniProt P48729: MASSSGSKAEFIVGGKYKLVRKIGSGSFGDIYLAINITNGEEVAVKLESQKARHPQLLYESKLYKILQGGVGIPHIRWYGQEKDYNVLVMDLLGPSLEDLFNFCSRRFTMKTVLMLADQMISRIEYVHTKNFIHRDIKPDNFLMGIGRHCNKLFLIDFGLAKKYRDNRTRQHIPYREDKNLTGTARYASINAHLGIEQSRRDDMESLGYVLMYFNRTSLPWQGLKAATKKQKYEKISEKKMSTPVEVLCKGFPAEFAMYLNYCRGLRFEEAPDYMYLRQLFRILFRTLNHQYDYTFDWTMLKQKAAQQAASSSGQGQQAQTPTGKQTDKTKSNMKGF
UniProt P48730: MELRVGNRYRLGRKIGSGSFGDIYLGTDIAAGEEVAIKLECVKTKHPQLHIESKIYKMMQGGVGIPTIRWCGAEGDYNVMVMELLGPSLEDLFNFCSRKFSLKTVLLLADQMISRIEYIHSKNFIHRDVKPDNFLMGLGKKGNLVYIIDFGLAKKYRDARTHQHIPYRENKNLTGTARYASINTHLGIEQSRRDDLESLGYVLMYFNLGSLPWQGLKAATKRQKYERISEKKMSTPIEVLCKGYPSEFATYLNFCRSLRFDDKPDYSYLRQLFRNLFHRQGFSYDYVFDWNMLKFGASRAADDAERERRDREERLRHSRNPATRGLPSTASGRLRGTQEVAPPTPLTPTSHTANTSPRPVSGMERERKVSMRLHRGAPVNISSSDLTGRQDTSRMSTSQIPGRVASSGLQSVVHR
UniProt Q08345: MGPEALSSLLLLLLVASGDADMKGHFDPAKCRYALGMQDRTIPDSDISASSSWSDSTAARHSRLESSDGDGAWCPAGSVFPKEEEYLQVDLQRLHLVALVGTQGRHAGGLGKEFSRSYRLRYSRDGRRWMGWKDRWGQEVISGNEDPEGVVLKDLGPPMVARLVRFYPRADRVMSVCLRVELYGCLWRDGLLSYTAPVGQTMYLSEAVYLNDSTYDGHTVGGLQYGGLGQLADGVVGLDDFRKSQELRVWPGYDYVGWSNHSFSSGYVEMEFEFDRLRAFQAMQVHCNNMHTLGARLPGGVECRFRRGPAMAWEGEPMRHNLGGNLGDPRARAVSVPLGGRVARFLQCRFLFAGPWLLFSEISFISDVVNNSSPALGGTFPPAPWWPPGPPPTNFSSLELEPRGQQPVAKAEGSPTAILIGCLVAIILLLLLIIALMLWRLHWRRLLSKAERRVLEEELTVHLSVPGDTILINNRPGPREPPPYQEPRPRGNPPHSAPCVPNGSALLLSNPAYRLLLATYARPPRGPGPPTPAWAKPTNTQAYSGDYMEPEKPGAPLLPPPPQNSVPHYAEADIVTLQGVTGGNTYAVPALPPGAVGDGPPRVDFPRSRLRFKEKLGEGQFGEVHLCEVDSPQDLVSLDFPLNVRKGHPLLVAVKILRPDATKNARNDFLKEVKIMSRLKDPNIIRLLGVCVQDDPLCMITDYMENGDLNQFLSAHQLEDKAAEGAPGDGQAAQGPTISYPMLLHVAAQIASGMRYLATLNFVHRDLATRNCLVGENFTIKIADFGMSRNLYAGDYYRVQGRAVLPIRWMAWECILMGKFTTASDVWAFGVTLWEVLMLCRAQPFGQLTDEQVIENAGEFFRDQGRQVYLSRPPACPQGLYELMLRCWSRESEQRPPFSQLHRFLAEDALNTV
UniProt Q9Y463, whole entry, looked up: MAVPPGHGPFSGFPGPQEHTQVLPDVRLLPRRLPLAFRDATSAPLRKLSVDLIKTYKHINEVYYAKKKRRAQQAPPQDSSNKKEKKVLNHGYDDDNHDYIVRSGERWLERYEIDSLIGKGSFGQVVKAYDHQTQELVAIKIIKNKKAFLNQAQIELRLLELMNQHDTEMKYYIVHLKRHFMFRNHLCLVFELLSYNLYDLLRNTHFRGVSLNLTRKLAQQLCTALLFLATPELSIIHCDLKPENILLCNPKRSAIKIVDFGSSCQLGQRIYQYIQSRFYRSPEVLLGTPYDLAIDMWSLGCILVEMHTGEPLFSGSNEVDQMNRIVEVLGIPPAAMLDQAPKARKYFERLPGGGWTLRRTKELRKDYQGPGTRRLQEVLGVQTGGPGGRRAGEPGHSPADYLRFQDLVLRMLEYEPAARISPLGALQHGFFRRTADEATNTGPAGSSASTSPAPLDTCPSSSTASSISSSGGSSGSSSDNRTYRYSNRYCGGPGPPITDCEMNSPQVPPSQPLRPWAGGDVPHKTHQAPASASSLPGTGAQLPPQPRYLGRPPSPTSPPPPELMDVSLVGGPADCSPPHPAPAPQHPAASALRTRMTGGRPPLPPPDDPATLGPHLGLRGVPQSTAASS
UniProt P21860, whole entry: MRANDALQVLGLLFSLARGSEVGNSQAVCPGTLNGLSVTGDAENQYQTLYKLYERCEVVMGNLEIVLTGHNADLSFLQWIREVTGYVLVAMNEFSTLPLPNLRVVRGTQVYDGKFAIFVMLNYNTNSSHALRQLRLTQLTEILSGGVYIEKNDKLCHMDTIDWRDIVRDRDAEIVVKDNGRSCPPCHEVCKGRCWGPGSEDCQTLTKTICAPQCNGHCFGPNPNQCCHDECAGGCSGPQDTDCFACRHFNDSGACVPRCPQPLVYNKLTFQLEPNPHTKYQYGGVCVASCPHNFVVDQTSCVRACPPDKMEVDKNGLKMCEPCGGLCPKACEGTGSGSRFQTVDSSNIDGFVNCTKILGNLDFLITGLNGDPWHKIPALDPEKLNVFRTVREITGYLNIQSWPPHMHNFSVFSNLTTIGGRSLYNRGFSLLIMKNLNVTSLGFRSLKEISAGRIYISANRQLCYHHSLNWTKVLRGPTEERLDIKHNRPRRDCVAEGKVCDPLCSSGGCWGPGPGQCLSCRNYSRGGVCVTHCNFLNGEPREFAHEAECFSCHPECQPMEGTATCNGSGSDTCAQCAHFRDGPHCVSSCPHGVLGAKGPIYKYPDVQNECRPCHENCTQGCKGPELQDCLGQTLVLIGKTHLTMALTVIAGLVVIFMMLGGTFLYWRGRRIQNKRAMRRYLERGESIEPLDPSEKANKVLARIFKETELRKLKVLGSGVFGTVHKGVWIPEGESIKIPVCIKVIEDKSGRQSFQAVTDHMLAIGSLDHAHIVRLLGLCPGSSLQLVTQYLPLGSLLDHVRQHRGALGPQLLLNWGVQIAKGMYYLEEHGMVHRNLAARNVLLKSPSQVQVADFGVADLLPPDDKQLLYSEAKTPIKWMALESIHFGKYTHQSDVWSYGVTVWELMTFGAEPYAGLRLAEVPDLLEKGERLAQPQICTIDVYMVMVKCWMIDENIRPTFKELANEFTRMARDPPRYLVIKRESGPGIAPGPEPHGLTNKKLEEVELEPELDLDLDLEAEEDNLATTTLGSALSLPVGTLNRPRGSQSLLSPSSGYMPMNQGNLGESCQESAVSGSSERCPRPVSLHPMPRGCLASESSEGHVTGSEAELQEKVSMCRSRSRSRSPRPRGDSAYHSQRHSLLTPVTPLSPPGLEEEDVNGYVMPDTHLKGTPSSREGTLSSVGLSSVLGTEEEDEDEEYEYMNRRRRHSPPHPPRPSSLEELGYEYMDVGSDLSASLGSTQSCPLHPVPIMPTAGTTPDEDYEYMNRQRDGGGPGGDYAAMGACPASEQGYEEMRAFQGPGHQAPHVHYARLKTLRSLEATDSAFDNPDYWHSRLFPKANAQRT

Measured: kinase-Nluc reporter destabilization hit call

COc1cc2c(cc1OC)/C(=C/c1ccc(O)cc1)C(=O)N2 (10 µM)
inactive: CDK7 = 0 | CDK9 = 0 | CHEK2 = 0 | CSF1R 0 | CSK 0 | CSNK1A1 = 0 | CSNK1D 0 | DDR1 = 0 | DYRK1B 0 | DYRK2 = 0 | EGFR 0 | EGFR_G719S 0 | EGFR_G719S_T790M 0 | EGFR_L718V 0 | EGFR_L858R 0 | EGFR_L861Q 0 | EGFR_T790M 0 | EPHA2 = 0 | ERBB3 = 0 | [1] 0

COc1ccc(Br)cc1NC(=O)Nc1cccc2c1ccn2Cc1ccnc(N)c1 (2.5 µM)
inactive: CDK7 = 0 | CDK9 = 0 | CHEK2 = 0 | CSF1R 0 | CSK 0 | CSNK1A1 = 0 | CSNK1D 0 | DDR1 = 0 | DYRK1B 0 | DYRK2 = 0 | EGFR 0 | EGFR_G719S 0 | EGFR_G719S_T790M 0 | EGFR_L718V 0 | EGFR_L858R 0 | EGFR_L861Q 0 | EGFR_T790M 0 | EPHA2 = 0 | ERBB3 = 0 | [1] 0

COc1ccc(Nc2ncc(C(F)(F)F)c(NC3CC3)n2)cc1OC (10 µM)
inactive: CDK7 = 0 | CDK9 = 0 | CHEK2 = 0 | CSF1R 0 | CSK 0 | CSNK1A1 = 0 | CSNK1D 0 | DDR1 = 0 | DYRK1B 0 | DYRK2 = 0 | EGFR 0 | EGFR_G719S 0 | EGFR_G719S_T790M 0 | EGFR_L718V 0 | EGFR_L858R 0 | EGFR_L861Q 0 | EGFR_T790M 0 | EPHA2 = 0 | ERBB3 = 0 | [1] 0

C=CC(=O)N1CCN(C(=O)CNc2cc(I)c(Cl)cc2O)CC1 [K-Ras(G12C) inhibitor 12] (10 µM)
inactive: CDK7 = 0 | CDK9 = 0 | CHEK2 = 0 | CSF1R 0 | CSK 0 | CSNK1A1 = 0 | CSNK1D 0 | DDR1 = 0 | DYRK1B 0 | DYRK2 = 0 | EGFR 0 | EGFR_G719S 0 | EGFR_G719S_T790M 0 | EGFR_L718V 0 | EGFR_L858R 0 | EGFR_L861Q 0 | EGFR_T790M 0 | EPHA2 = 0 | ERBB3 = 0 | [1] 0

Cn1c2cc([S+](C)[O-])sc2c2cnn(Cc3cccc(N)c3)c(=O)c21 (stereo not given) (2.5 µM)
inactive: CDK7 = 0 | CDK9 = 0 | CHEK2 = 0 | CSF1R 0 | CSK 0 | CSNK1A1 = 0 | CSNK1D 0 | DDR1 = 0 | DYRK1B 0 | DYRK2 = 0 | EGFR 0 | EGFR_G719S 0 | EGFR_G719S_T790M 0 | EGFR_L718V 0 | EGFR_L858R 0 | EGFR_L861Q 0 | EGFR_T790M 0 | EPHA2 = 0 | ERBB3 = 0 | [1] 0

C[C@H]1O[C@@H](O[C@H]2CC[C@@]3(C)[C@@H](CC[C@]4(C)[C@@H]3C=C[C@]35OC[C@@]6(CCC(C)(C)C[C@H]63)[C@H](O)C[C@]54C)[C@]2(C)CO)[C@H](O)[C@@H](O[C@@H]2O[C@H](CO)[C@@H](O)[C@H](O)[C@H]2O)[C@H]1O [Saikosaponin D] (2.5 µM)
inactive: CDK7 = 0 | CDK9 = 0 | CHEK2 = 0 | CSF1R 0 | CSK 0 | CSNK1A1 = 0 | CSNK1D 0 | DDR1 = 0 | DYRK1B 0 | DYRK2 = 0 | EGFR 0 | EGFR_G719S 0 | EGFR_G719S_T790M 0 | EGFR_L718V 0 | EGFR_L858R 0 | EGFR_L861Q 0 | EGFR_T790M 0 | EPHA2 = 0 | ERBB3 = 0 | [1] 0

C=CC(=O)Nc1ccc(C(=O)Nc2[nH]nc3c2CN(C(=O)N[C@H](CN(C)C)c2ccccc2)C3(C)C)cc1 (10 µM)
inactive: CDK7 = 0 | CDK9 = 0 | CHEK2 = 0 | CSF1R 0 | CSK 0 | CSNK1A1 = 0 | CSNK1D 0 | DDR1 = 0 | DYRK1B 0 | DYRK2 = 0 | EGFR 0 | EGFR_G719S 0 | EGFR_G719S_T790M 0 | EGFR_L718V 0 | EGFR_L858R 0 | EGFR_L861Q 0 | EGFR_T790M 0 | EPHA2 = 0 | ERBB3 = 0 | [1] 0

CNC(=O)CNc1cnc2ccc(-c3ccc(OC)c(OC)c3)cc2n1 (10 µM)
inactive: CDK7 = 0 | CDK9 = 0 | CHEK2 = 0 | CSF1R 0 | CSK 0 | CSNK1A1 = 0 | CSNK1D 0 | DDR1 = 0 | DYRK1B 0 | DYRK2 = 0 | EGFR 0 | EGFR_G719S 0 | EGFR_G719S_T790M 0 | EGFR_L718V 0 | EGFR_L858R 0 | EGFR_L861Q 0 | EGFR_T790M 0 | EPHA2 = 0 | ERBB3 = 0 | [1] 0

N#Cc1ccc(-c2cnc3[nH]cc(NC(=O)c4cccnc4)c3c2)cc1 (10 µM)
inactive: CDK7 = 0 | CDK9 = 0 | CHEK2 = 0 | CSF1R 0 | CSK 0 | CSNK1A1 = 0 | CSNK1D 0 | DDR1 = 0 | DYRK1B 0 | DYRK2 = 0 | EGFR 0 | EGFR_G719S 0 | EGFR_G719S_T790M 0 | EGFR_L718V 0 | EGFR_L858R 0 | EGFR_L861Q 0 | EGFR_T790M 0 | EPHA2 = 0 | ERBB3 = 0 | [1] 0

Cn1c(CNc2cccc(C(=O)NCc3ccccc3C(F)(F)F)c2)nnc1-c1ccncc1 (10 µM)
inactive: CDK7 = 0 | CDK9 = 0 | CHEK2 = 0 | CSF1R 0 | CSK 0 | CSNK1A1 = 0 | CSNK1D 0 | DDR1 = 0 | DYRK1B 0 | DYRK2 = 0 | EGFR 0 | EGFR_G719S 0 | EGFR_G719S_T790M 0 | EGFR_L718V 0 | EGFR_L858R 0 | EGFR_L861Q 0 | EGFR_T790M 0 | EPHA2 = 0 | ERBB3 = 0 | [1] 0

COC(=O)Nc1ccc(-c2nc(N3CCOCC3)c3cnn(C4CCN(Cc5cccnc5)CC4)c3n2)cc1 (10 µM)
inactive: CDK7 = 0 | CDK9 = 0 | CHEK2 = 0 | CSF1R 0 | CSK 0 | CSNK1A1 = 0 | CSNK1D 0 | DDR1 = 0 | DYRK1B 0 | DYRK2 = 0 | EGFR 0 | EGFR_G719S 0 | EGFR_G719S_T790M 0 | EGFR_L718V 0 | EGFR_L858R 0 | EGFR_L861Q 0 | EGFR_T790M 0 | EPHA2 = 0 | ERBB3 = 0 | [1] 0

CCN(CC)CCOc1ccc(Nc2nc(-c3ccccc3NC(=O)CCN3CCN(C)CC3)nc3ccccc23)cc1 (2.5 µM)
inactive: CDK7 = 0 | CDK9 = 0 | CHEK2 = 0 | CSF1R 0 | CSK 0 | CSNK1A1 = 0 | CSNK1D 0 | DDR1 = 0 | DYRK1B 0 | DYRK2 = 0 | EGFR 0 | EGFR_G719S 0 | EGFR_G719S_T790M 0 | EGFR_L718V 0 | EGFR_L858R 0 | EGFR_L861Q 0 | EGFR_T790M 0 | EPHA2 = 0 | ERBB3 = 0 | [1] 0

An excerpt from above in order of count of non-hydrogen atoms, largest number first.
COC(=O)Nc1ccc(-c2nc(N3CCOCC3)c3cnn(C4CCN(Cc5cccnc5)CC4)c3n2)cc1 (10 µM)
inactive: CDK7 = 0 | CDK9 = 0 | CHEK2 = 0 | CSF1R 0 | CSK 0 | CSNK1A1 = 0 | CSNK1D 0 | DDR1 = 0 | DYRK1B 0 | DYRK2 = 0 | EGFR 0 | EGFR_G719S 0 | EGFR_G719S_T790M 0 | EGFR_L718V 0 | EGFR_L858R 0 | EGFR_L861Q 0 | EGFR_T790M 0 | EPHA2 = 0 | ERBB3 = 0 | [1] 0

Cn1c(CNc2cccc(C(=O)NCc3ccccc3C(F)(F)F)c2)nnc1-c1ccncc1 (10 µM)
inactive: CDK7 = 0 | CDK9 = 0 | CHEK2 = 0 | CSF1R 0 | CSK 0 | CSNK1A1 = 0 | CSNK1D 0 | DDR1 = 0 | DYRK1B 0 | DYRK2 = 0 | EGFR 0 | EGFR_G719S 0 | EGFR_G719S_T790M 0 | EGFR_L718V 0 | EGFR_L858R 0 | EGFR_L861Q 0 | EGFR_T790M 0 | EPHA2 = 0 | ERBB3 = 0 | [1] 0

CNC(=O)CNc1cnc2ccc(-c3ccc(OC)c(OC)c3)cc2n1 (10 µM)
inactive: CDK7 = 0 | CDK9 = 0 | CHEK2 = 0 | CSF1R 0 | CSK 0 | CSNK1A1 = 0 | CSNK1D 0 | DDR1 = 0 | DYRK1B 0 | DYRK2 = 0 | EGFR 0 | EGFR_G719S 0 | EGFR_G719S_T790M 0 | EGFR_L718V 0 | EGFR_L858R 0 | EGFR_L861Q 0 | EGFR_T790M 0 | EPHA2 = 0 | ERBB3 = 0 | [1] 0

The list continues.

CC(C)=CCC/C(C)=C/CC/C(C)=C/C=C/C(C)=C/C(=O)O [Peretinoin] (10 µM)
inactive: CDK7 = 0 | CDK9 = 0 | CHEK2 = 0 | CSF1R 0 | CSK 0 | CSNK1A1 = 0 | CSNK1D 0 | DDR1 = 0 | DYRK1B 0 | DYRK2 = 0 | EGFR 0 | EGFR_G719S 0 | EGFR_G719S_T790M 0 | EGFR_L718V 0 | EGFR_L858R 0 | EGFR_L861Q 0 | EGFR_T790M 0 | EPHA2 = 0 | ERBB3 = 0 | [1] 0

Cc1ccc(-n2nc(C(C)(C)C)cc2NC(=O)Nc2ccc(OCCN3CCOCC3)cc2)cc1 (10 µM)
inactive: CDK7 = 0 | CDK9 = 0 | CHEK2 = 0 | CSF1R 0 | CSK 0 | CSNK1A1 = 0 | CSNK1D 0 | DDR1 = 0 | DYRK1B 0 | DYRK2 = 0 | EGFR 0 | EGFR_G719S 0 | EGFR_G719S_T790M 0 | EGFR_L718V 0 | EGFR_L858R 0 | EGFR_L861Q 0 | EGFR_T790M 0 | EPHA2 = 0 | ERBB3 = 0 | [1] 0

O=C(Nc1cccnc1)c1cc(-c2ccnc(F)c2)ccc1OCc1ccccc1 (10 µM)
inactive: CDK7 = 0 | CDK9 = 0 | CHEK2 = 0 | CSF1R 0 | CSK 0 | CSNK1A1 = 0 | CSNK1D 0 | DDR1 = 0 | DYRK1B 0 | DYRK2 = 0 | EGFR 0 | EGFR_G719S 0 | EGFR_G719S_T790M 0 | EGFR_L718V 0 | EGFR_L858R 0 | EGFR_L861Q 0 | EGFR_T790M 0 | EPHA2 = 0 | ERBB3 = 0 | [1] 0

CCCCCC(=O)N[C@@H](Cc1ccc(O)cc1)C(=O)OC (10 µM)
inactive: CDK7 = 0 | CDK9 = 0 | CHEK2 = 0 | CSF1R 0 | CSK 0 | CSNK1A1 = 0 | CSNK1D 0 | DDR1 = 0 | DYRK1B 0 | DYRK2 = 0 | EGFR 0 | EGFR_G719S 0 | EGFR_G719S_T790M 0 | EGFR_L718V 0 | EGFR_L858R 0 | EGFR_L861Q 0 | EGFR_T790M 0 | EPHA2 = 0 | ERBB3 = 0 | [1] 0

Cc1c(C)c(NCC(=O)N(C)C2CCN(Cc3ccc(C(N)=O)cc3)CC2)c(C)c(C)c1N (10 µM)
inactive: CDK7 = 0 | CDK9 = 0 | CHEK2 = 0 | CSF1R 0 | CSK 0 | CSNK1A1 = 0 | CSNK1D 0 | DDR1 = 0 | DYRK1B 0 | DYRK2 = 0 | EGFR 0 | EGFR_G719S 0 | EGFR_G719S_T790M 0 | EGFR_L718V 0 | EGFR_L858R 0 | EGFR_L861Q 0 | EGFR_T790M 0 | EPHA2 = 0 | ERBB3 = 0 | [1] 0

N#Cc1ccc2ncnc(NCCc3ccccc3)c2c1 [Senexin A] (10 µM)
inactive: CDK7 = 0 | CDK9 = 0 | CHEK2 = 0 | CSF1R 0 | CSK 0 | CSNK1A1 = 0 | CSNK1D 0 | DDR1 = 0 | DYRK1B 0 | DYRK2 = 0 | EGFR 0 | EGFR_G719S 0 | EGFR_G719S_T790M 0 | EGFR_L718V 0 | EGFR_L858R 0 | EGFR_L861Q 0 | EGFR_T790M 0 | EPHA2 = 0 | ERBB3 = 0 | [1] 0

Source: the supplement of paper PMC12823440, “Inhibitors supercharge kinase turnover through native proteolytic circuits” (Nature, 2025)
